Test results from publication PMC3777161.
Results are given in words; binding and its absence hold for the method and conditions named. For part of these data: Binding seen in cells or lysates may run through a third protein. Some entries that bind do so weakly or less than the wild type. For part of these data: Tags and fused reporters may be left off the sequences shown. Blank lines part the entries; values can stand above or below the binder they belong to.

Tests used:
[1] = target: T1, BD-ABAR_(348–1038), middle fragment (amino acid residues 348–1038) of ABAR fused to the GAL4 DNA binding domain (Arabidopsis thaliana) (UniProt Q9FNB0); experiment: two-hybrid; pairwise test in yeast strain AH109, bait in pGBKT7, prey in pGADT7; growth on Leu-Trp-His-Ade-deficient medium (SD4-), 5-7 days at 30 °C
T1 sequence: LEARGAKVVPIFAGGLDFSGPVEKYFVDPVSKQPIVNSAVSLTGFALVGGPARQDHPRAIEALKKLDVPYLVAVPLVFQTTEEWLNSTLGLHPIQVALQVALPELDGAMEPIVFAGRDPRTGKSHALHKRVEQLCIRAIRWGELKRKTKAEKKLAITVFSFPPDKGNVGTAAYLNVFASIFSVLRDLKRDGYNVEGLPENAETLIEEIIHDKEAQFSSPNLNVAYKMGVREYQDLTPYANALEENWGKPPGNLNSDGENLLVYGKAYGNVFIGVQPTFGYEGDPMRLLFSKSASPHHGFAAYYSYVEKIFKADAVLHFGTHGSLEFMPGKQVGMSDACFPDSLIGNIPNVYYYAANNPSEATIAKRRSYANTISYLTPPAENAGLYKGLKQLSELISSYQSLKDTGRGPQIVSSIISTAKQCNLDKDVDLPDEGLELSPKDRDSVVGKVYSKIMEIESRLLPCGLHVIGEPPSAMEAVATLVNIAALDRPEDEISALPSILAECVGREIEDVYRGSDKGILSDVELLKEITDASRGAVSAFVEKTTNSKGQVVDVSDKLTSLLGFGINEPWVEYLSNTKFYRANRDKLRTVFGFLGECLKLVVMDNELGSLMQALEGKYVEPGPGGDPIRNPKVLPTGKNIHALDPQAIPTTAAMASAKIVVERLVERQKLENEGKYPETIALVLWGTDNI

[2] = target: T1, BD-ABAR_(348–1038), middle fragment (amino acid residues 348–1038) of ABAR fused to the GAL4 DNA binding domain (Arabidopsis thaliana); experiment: co-IP; from yeast total proteins; anti-HA (CPN20) and anti-c-Myc (ABAR) antisera; preimmune serum as negative control
[3] = target: T2, CPN20 of Arabidopsis total protein extracts (Arabidopsis thaliana (endogenous in Arabidopsis)) (UniProt O65282); experiment: co-IP; Arabidopsis total protein extracts; IP with anti-CPN20 serum, blot with anti-ABAR serum; preimmune serum as negative control
T2 sequence: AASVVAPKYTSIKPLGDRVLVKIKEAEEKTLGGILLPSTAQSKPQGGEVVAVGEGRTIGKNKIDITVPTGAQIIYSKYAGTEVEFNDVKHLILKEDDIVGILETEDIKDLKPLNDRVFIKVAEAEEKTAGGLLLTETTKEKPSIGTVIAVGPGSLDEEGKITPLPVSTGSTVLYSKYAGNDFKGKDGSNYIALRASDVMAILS

- binding [1]: binds
- binding [2]: binds
B1: AD-CPN20, full-length CPN20 fused to the activation domain in the prey vector pGADT7 (protein, UniProt O65282 1-253)
chain: MAATQLTASPVTMSARSLASLDGLRASSVKFSSLKPGTLRQSQFRRLVVKAASVVAPKYTSIKPLGDRVLVKIKEAEEKTLGGILLPSTAQSKPQGGEVVAVGEGRTIGKNKIDITVPTGAQIIYSKYAGTEVEFNDVKHLILKEDDIVGILETEDIKDLKPLNDRVFIKVAEAEEKTAGGLLLTETTKEKPSIGTVIAVGPGSLDEEGKITPLPVSTGSTVLYSKYAGNDFKGKDGSNYIALRASDVMAILS

- binding [3]: binds
B2: ABAR protein (~150 kD) of Arabidopsis total protein extracts (protein, UniProt Q9FNB0 50-1381)
chain: AVSGNGLFTQTNPEVRRIVPIKRDNVPTVKIVYVVLEAQYQSSLSEAVQSLNKTSRFASYEVVGYLVEELRDKNTYNNFCEDLKDANIFIGSLIFVEELAIKVKDAVEKERDRMDAVLVFPSMPEVMRLNKLGSFSMSQLGQSKSPFFQLFKRKKQGSAGFADSMLKLVRTLPKVLKYLPSDKAQDARLYILSLQFWLGGSPDNLQNFVKMISGSYVPALKGVKIEYSDPVLFLDTGIWHPLAPTMYDDVKEYWNWYDTRRDTNDSLKRKDATVVGLVLQRSHIVTGDDSHYVAVIMELEARGAKVVPIFAGGLDFSGPVEKYFVDPVSKQPIVNSAVSLTGFALVGGPARQDHPRAIEALKKLDVPYLVAVPLVFQTTEEWLNSTLGLHPIQVALQVALPELDGAMEPIVFAGRDPRTGKSHALHKRVEQLCIRAIRWGELKRKTKAEKKLAITVFSFPPDKGNVGTAAYLNVFASIFSVLRDLKRDGYNVEGLPENAETLIEEIIHDKEAQFSSPNLNVAYKMGVREYQDLTPYANALEENWGKPPGNLNSDGENLLVYGKAYGNVFIGVQPTFGYEGDPMRLLFSKSASPHHGFAAYYSYVEKIFKADAVLHFGTHGSLEFMPGKQVGMSDACFPDSLIGNIPNVYYYAANNPSEATIAKRRSYANTISYLTPPAENAGLYKGLKQLSELISSYQSLKDTGRGPQIVSSIISTAKQCNLDKDVDLPDEGLELSPKDRDSVVGKVYSKIMEIESRLLPCGLHVIGEPPSAMEAVATLVNIAALDRPEDEISALPSILAECVGREIEDVYRGSDKGILSDVELLKEITDASRGAVSAFVEKTTNSKGQVVDVSDKLTSLLGFGINEPWVEYLSNTKFYRANRDKLRTVFGFLGECLKLVVMDNELGSLMQALEGKYVEPGPGGDPIRNPKVLPTGKNIHALDPQAIPTTAAMASAKIVVERLVERQKLENEGKYPETIALVLWGTDNIKTYGESLGQVLWMIGVRPIADTFGRVNRVEPVSLEELGRPRIDVVVNCSGVFRDLFINQMNLLDRAIKMVAELDEPVEQNFVRKHALEQAEALGIDIREAATRVFSNASGSYSANISLAVENSSWNDEKQLQDMYLSRKSFAFDSDAPGAGMAEKKQVFEMALSTAEVTFQNLDSSEISLTDVSHYFDSDPTNLVQSLRKDKKKPSSYIADTTTANAQVRTLSETVRLDARTKLLNPKWYEGMMSSGYEGVREIEKRLSNTVGWSATSGQVDNWVYEEANSTFIQDEEMLNRLMNTNPNSFRKMLQTFLEANGRGYWDTSAENIEKLKELYSQVEDKIEGIDR
